# According to PMC12431657, “Discovery and mechanistic insights of dibenzoylmethane as a broad spectrum inhibitor of coronavirus” (PLOS Pathogens, 2025):
# Counter-ions that a name gives are not always drawn. Like-named read-outs stand apart in the source and are kept apart here. In all, about 3,300 compounds went through this assay and about 60 (2%) showed an effect of 50% or more. Some of the results follow. Square brackets hold non-standard residues; d marks the D form. Peptide text beside a SMILES is read from it. * marks the point of attachment. Sta = CC(C)C[C@H](N)[C@@H](O)CC(=O)O; Isovaleryl = CC(C)CC(=O)*
# Test system: HCoV-OC43
# Set-up: species or system RD; HTS, protection from HCoV-OC43 induced cell death, luminescent cell viability (CellCounting-Lite 2.0), inhibition rate
# Conditions: 24 h post infection, 1 h compound pre-incubation, 10 µM, inhibitor
compound,measurement,setting,value
O=C(O)c1ncccc1O [3-Hydroxypicolinic acid],OC43 Inhibition rate,,0.1%
COc1ccc(O)c(N)c1 [2-Amino-4-methoxyphenol],OC43 Inhibition rate,,3.4%
CC[C@H]1CN2CC[C@H]1C[C@H]2[C@H](O)c1ccnc2ccc(OC)cc12 [Hydroquinine],OC43 Inhibition rate,,0%
CC(=O)CCc1ccc(O[C@@H]2O[C@H](CO)[C@@H](O)[C@H](O)[C@H]2O)cc1 [Raspberry ketone glucoside],OC43 Inhibition rate,,0.7%
O=c1cc(-c2ccc(O)c(O)c2)oc2c([C@@H]3O[C@H](CO)[C@@H](O)[C@H](O)[C@H]3O)c(O)cc(O)c12 [Orientin],OC43 Inhibition rate,,1.6%
CCCCC/C=C\C/C=C\C/C=C\C/C=C\CCCC(=O)O [Arachidonic acid],OC43 Inhibition rate,,1.2%
OC[C@H]1O[C@@](CO)(OC[C@@]2(OC[C@@]3(OC[C@@]4(OC[C@@]5(OC[C@@]6(OC[C@@]7(O[C@H]8O[C@H](CO)[C@@H](O)[C@H](O)[C@H]8O)O[C@H](CO)[C@@H](O)[C@@H]7O)O[C@H](CO)[C@@H](O)[C@@H]6O)O[C@H](CO)[C@@H](O)[C@@H]5O)O[C@H](CO)[C@@H](O)[C@@H]4O)O[C@H](CO)[C@@H](O)[C@@H]3O)O[C@H](CO)[C@@H](O)[C@@H]2O)[C@@H](O)[C@@H]1O [Fructo-oligosaccharide DP8/GF7],OC43 Inhibition rate,,5.1%
CC[C@@H](CO)NCCN[C@@H](CC)CO [Ethambutol (dihydrochloride)],OC43 Inhibition rate,,-0.1%
C[C@]1(Cn2ccnn2)[C@H](C(=O)O)N2C(=O)C[C@H]2S1(=O)=O [Tazobactam],OC43 Inhibition rate,,-0.1%
C=CC1CNC(=S)O1 (racemic) [DL-Goitrin],OC43 Inhibition rate,,-1%
O=c1cc(-c2ccccc2)oc2c1ccc1ccccc12 [Alpha-Naphthoflavone],OC43 Inhibition rate,,65.1%
COc1ccc(/C=C/c2cc(O)cc(O)c2)cc1 [4'-Methoxyresveratrol],OC43 Inhibition rate,,1.4%
O=P(O)(O)OC(CO)CO [β-Glycerophosphate (disodium salt hydrate)],OC43 Inhibition rate,,-0.3%
O=C(/C=C/c1ccc(O)c(O)c1)O[C@@H]1C[C@](O)(C(=O)O)C[C@@H](O)[C@H]1O [Chlorogenic acid],OC43 Inhibition rate,,-0.2%
C[C@@H]1O[C@@H](OC[C@H]2O[C@@H](Oc3cc(O)c4c(=O)cc(-c5ccc(O)cc5)oc4c3)[C@H](O)[C@@H](O)[C@@H]2O)[C@H](O)[C@H](O)[C@H]1O [Isorhoifolin],OC43 Inhibition rate,,0%
C=CCOC(Cn1ccnc1)c1ccc(Cl)cc1Cl (stereo not drawn) [Imazalil],OC43 Inhibition rate,,23.5%
Cc1cc2c(C(C)C)c(O)c(O)c(C=O)c2c(O)c1-c1c(C)cc2c(C(C)C)c(O)c(O)c(C=O)c2c1O [Gossypol],OC43 Inhibition rate,,-0.1%
C/C=C(\C)C(=O)O[C@H]1C[C@@H](OC(C)=O)[C@@]2(C(=O)OC)CO[C@H]3[C@@H](O)[C@@](C)([C@]45O[C@@]4(C)[C@H]4C[C@@H]5O[C@@H]5OC=C[C@@]54O)[C@H]4[C@]1(CO[C@]4(O)C(=O)OC)[C@@H]32 [Azadirachtin],OC43 Inhibition rate,,0.1%
C[C@@H]1CCCCCCCCCCCCC(=O)C1 [Muscone],OC43 Inhibition rate,,2.5%
CC(C)=CCC[C@](C)(O[C@@H]1O[C@H](CO[C@@H]2O[C@H](CO)[C@@H](O)[C@H](O)[C@H]2O)[C@@H](O)[C@H](O)[C@H]1O)[C@H]1CC[C@]2(C)[C@@H]1[C@H](O)C[C@@H]1[C@@]3(C)CC[C@H](O[C@@H]4O[C@H](CO)[C@@H](O)[C@H](O)[C@H]4O[C@@H]4O[C@H](CO)[C@@H](O)[C@H](O)[C@H]4O[C@@H]4OC[C@@H](O)[C@H](O)[C@H]4O)C(C)(C)[C@@H]3CC[C@]12C [Notoginsenoside Fa],OC43 Inhibition rate,,0.1%
CC(C)CC(=O)N[C@H](C(=O)N[C@H](C(=O)N[C@@H](CC(C)C)[C@@H](O)CC(=O)N[C@@H](C)C(=O)N[C@@H](CC(C)C)[C@@H](O)CC(=O)O)C(C)C)C(C)C [Pepstatin (Trifluoroacetate)] (Isovaleryl-VV[Sta]A[Sta]-OH),OC43 Inhibition rate,"OC43 Inhibition rate, 24 h",-3.4%
CC(=O)OCC(=O)[C@H]1CC[C@H]2[C@@H]3CCC4=CC(=O)CC[C@]4(C)[C@H]3CC[C@]12C [Deoxycorticosterone acetate],OC43 Inhibition rate,,-0.1%
"COc1ccc(-c2cc(=O)c3ccccc3o2)cc1OC [3',4'-Dimethoxyflavone]",OC43 Inhibition rate,,6.6%
O=C(O)c1ccc(C(=O)O)cc1 [Terephthalic acid],OC43 Inhibition rate,,0.5%
COc1ccc(O)c(C(=O)O)c1 [5-Methoxysalicylic acid],OC43 Inhibition rate,,-0.5%
Cc1c(O)c(C)c2c(c1O)C(=O)[C@H](Cc1ccc3c(c1)OCO3)CO2 [Methylophiopogonanone A],OC43 Inhibition rate,,-1%
COC(=O)/C=C/c1ccccc1 [Methyl cinnamate],OC43 Inhibition rate,,-0.6%
C[C@H]1[C@H](OC(=O)CCC(=O)O)O[C@@H]2O[C@@]3(C)CC[C@H]4[C@H](C)CC[C@@H]1[C@@]24OO3 [Artesunate],OC43 Inhibition rate,,-0.8%
CCCCCCCCCCCCOC(=O)CS(=O)(=O)O [Sodium lauryl sulfoacetate],OC43 Inhibition rate,,18%
COc1ccc(C(=O)O)cc1OC [Veratric acid],OC43 Inhibition rate,,5.5%
OC[C@H]1O[C@@H](Oc2ccc3c(c2)OC[C@H]2c4cc5c(cc4O[C@@H]32)OCO5)[C@H](O)[C@@H](O)[C@@H]1O [Trifolirhizin],OC43 Inhibition rate,,0.2%
C=C(CO)C(=O)O[C@H]1CC(=C)[C@@H]2C[C@H](O)C(=C)[C@@H]2[C@H]2OC(=O)C(=C)[C@@H]21 [Cynaropicrin],OC43 Inhibition rate,,-2.3%
O=C(O[C@@H]1Cc2c(O)cc(O)cc2O[C@H]1c1cc(O)c(O)c(O)c1)c1cc(O)c(O)c(O)c1 [(-)-Gallocatechin gallate],OC43 Inhibition rate,,1.5%
CC1=CCC(C(C)C)=CC1 [γ-Terpinene],OC43 Inhibition rate,,0.9%
"Oc1cc2cc[nH]c2cc1O [5,6-Dihydroxyindole]",OC43 Inhibition rate,,-0.2%
O=C1c2c(O)cc(O)cc2O[C@H](c2cc(O)c(O)c(O)c2)[C@H]1O [Dihydromyricetin],OC43 Inhibition rate,,-0.8%

# Gathered by group, those above containing four or more nitrogen atoms.
compound,measurement,setting,value
C[C@]1(Cn2ccnn2)[C@H](C(=O)O)N2C(=O)C[C@H]2S1(=O)=O [Tazobactam],OC43 Inhibition rate,,-0.1%
CC(C)CC(=O)N[C@H](C(=O)N[C@H](C(=O)N[C@@H](CC(C)C)[C@@H](O)CC(=O)N[C@@H](C)C(=O)N[C@@H](CC(C)C)[C@@H](O)CC(=O)O)C(C)C)C(C)C [Pepstatin (Trifluoroacetate)] (Isovaleryl-VV[Sta]A[Sta]-OH),OC43 Inhibition rate,"OC43 Inhibition rate, 24 h",-3.4%
